These are yes or no findings as the source states them, for the method shown. Binding seen in cells or lysates may run through a third protein. Here binding means that the protein was enriched with, or labelled near, the bait; the list need not be complete.
B1: Sun1 (protein, UniProt Q9D666 1-913)
chain: MDFSRLHTYTPPQCVPENTGYTYALSSSYSSDALDFETEHKLEPVFDSPRMSRRSLRLVTTASYSSGDSQAIDSHISTSRATPAKGRETRTVKQRRSASKPAFSINHLSGKGLSSSTSHDSSCSLRSATVLRHPVLDESLIREQTKVDHFWGLDDDGDLKGGNKAATQGNGELAAEVASSNGYTCRDCRMLSARTDALTAHSAIHGTTSRVYSRDRTLKPRGVSFYLDRTLWLAKSTSSSFASFIVQLFQVVLMKLNFETYKLKGYESRAYESQSYETKSHESEAHLGHCGRMTAGELSRVDGESLCDDCKGKKHLEIHTATHSQLPQPHRVAGAMGRLCIYTGDLLVQALRRTRAAGWSVAEAVWSVLWLAVSAPGKAASGTFWWLGSGWYQFVTLISWLNVFLLTRCLRNICKVFVLLLPLLLLLGAGVSLWGQGNFFSLLPVLNWTAMQPTQRVDDSKGMHRPGPLPPSPPPKVDHKASQWPQESDMGQKVASLSAQCHNHDERLAELTVLLQKLQIRVDQVDDGREGLSLWVKNVVGQHLQEMGTIEPPDAKTDFMTFHHDHEVRLSNLEDVLRKLTEKSEAIQKELEETKLKAGSRDEEQPLLDRVQHLELELNLLKSQLSDWQHLKTSCEQAGARIQETVQLMFSEDQQGGSLEWLLEKLSSRFVSKDELQVLLHDLELKLLQNITHHITVTGQAPTSEAIVSAVNQAGISGITEAQAHIIVNNALKLYSQDKTGMVDFALESGGGSILSTRCSETYETKTALLSLFGVPLWYFSQSPRVVIQPDIYPGNCWAFKGSQGYLVVRLSMKIYPTTFTMEHIPKTLSPTGNISSAPKDFAVYGLETEYQEEGQPLGRFTYDQEGDSLQMFHTLERPDQAFQIVELRVLSNWGHPEYTCLYRFRVHGEPIQ
B2: Sun2 (protein, UniProt Q8BJS4 1-731)
chain: MSRRSQRLTRYSQDDNDGGSSSSGASSVAGSQGTVFKDSPLRTLKRKSSNMKHLSPAPQLGPSSDSHTSYYSESVVRESYIGSPRAVSLARSALLDDHLHSEPYWSGDLRGRRRRGTGGSESSKANGLTAESKASEDFFGSSSGYSSEDDLAGYTDSDQHSSGSRLRSAASRAGSFVWTLVTFPGRLFGLLYWWIGTTWYRLTTAASLLDVFVLTRSRHFSLNLKSFLWFLLLLLLLTGLTYGAWHFYPLGLQTLQPAVVSWWAAKESRKQPEVWESRDASQHFQAEQRVLSRVHSLERRLEALAADFSSNWQKEAIRLERLELRQGAAGHGGGSSLSHEDALSLLEGLVSRREATLKEDLRRDTVAHIQEELATLRAEHHQDSEDLFKKIVQASQESEARVQQLKTEWKSMTQEAFQESSVKELGRLEAQLASLRQELAALTLKQNSVADEVGLLPQKIQAARADVESQFPDWIRQFLLGDRGARSGLLQRDEMHAQLQELENKILTKMAEMQGKSAREAAASLGQILQKEGIVGVTEEQVHRIVKQALQRYSEDRIGMVDYALESGGASVISTRCSETYETKTALLSLFGIPLWYHSQSPRVILQPDVHPGNCWAFQGPQGFAVVRLSARIRPTAVTLEHVPKALSPNSTISSAPKDFAIFGFDEDLQQEGTLLGTFAYDQDGEPIQTFYFQASKMATYQVVELRILTNWGHPEYTCIYRFRVHGEPAH

Chains of the proteins cited; added tags and fusions are not shown.
UniProt P46938: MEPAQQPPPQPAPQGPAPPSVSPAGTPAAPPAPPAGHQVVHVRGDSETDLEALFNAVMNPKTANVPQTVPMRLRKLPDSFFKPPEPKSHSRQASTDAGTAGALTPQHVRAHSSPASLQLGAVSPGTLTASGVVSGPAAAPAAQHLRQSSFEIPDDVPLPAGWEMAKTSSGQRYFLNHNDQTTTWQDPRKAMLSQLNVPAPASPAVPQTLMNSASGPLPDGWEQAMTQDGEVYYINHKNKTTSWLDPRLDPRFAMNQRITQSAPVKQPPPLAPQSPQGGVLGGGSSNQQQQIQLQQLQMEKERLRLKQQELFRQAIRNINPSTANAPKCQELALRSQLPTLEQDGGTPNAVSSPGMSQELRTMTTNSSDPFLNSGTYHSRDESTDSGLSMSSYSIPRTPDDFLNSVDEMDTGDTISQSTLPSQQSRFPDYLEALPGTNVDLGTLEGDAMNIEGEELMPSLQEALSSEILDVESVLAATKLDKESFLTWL
UniProt Q8VHX6: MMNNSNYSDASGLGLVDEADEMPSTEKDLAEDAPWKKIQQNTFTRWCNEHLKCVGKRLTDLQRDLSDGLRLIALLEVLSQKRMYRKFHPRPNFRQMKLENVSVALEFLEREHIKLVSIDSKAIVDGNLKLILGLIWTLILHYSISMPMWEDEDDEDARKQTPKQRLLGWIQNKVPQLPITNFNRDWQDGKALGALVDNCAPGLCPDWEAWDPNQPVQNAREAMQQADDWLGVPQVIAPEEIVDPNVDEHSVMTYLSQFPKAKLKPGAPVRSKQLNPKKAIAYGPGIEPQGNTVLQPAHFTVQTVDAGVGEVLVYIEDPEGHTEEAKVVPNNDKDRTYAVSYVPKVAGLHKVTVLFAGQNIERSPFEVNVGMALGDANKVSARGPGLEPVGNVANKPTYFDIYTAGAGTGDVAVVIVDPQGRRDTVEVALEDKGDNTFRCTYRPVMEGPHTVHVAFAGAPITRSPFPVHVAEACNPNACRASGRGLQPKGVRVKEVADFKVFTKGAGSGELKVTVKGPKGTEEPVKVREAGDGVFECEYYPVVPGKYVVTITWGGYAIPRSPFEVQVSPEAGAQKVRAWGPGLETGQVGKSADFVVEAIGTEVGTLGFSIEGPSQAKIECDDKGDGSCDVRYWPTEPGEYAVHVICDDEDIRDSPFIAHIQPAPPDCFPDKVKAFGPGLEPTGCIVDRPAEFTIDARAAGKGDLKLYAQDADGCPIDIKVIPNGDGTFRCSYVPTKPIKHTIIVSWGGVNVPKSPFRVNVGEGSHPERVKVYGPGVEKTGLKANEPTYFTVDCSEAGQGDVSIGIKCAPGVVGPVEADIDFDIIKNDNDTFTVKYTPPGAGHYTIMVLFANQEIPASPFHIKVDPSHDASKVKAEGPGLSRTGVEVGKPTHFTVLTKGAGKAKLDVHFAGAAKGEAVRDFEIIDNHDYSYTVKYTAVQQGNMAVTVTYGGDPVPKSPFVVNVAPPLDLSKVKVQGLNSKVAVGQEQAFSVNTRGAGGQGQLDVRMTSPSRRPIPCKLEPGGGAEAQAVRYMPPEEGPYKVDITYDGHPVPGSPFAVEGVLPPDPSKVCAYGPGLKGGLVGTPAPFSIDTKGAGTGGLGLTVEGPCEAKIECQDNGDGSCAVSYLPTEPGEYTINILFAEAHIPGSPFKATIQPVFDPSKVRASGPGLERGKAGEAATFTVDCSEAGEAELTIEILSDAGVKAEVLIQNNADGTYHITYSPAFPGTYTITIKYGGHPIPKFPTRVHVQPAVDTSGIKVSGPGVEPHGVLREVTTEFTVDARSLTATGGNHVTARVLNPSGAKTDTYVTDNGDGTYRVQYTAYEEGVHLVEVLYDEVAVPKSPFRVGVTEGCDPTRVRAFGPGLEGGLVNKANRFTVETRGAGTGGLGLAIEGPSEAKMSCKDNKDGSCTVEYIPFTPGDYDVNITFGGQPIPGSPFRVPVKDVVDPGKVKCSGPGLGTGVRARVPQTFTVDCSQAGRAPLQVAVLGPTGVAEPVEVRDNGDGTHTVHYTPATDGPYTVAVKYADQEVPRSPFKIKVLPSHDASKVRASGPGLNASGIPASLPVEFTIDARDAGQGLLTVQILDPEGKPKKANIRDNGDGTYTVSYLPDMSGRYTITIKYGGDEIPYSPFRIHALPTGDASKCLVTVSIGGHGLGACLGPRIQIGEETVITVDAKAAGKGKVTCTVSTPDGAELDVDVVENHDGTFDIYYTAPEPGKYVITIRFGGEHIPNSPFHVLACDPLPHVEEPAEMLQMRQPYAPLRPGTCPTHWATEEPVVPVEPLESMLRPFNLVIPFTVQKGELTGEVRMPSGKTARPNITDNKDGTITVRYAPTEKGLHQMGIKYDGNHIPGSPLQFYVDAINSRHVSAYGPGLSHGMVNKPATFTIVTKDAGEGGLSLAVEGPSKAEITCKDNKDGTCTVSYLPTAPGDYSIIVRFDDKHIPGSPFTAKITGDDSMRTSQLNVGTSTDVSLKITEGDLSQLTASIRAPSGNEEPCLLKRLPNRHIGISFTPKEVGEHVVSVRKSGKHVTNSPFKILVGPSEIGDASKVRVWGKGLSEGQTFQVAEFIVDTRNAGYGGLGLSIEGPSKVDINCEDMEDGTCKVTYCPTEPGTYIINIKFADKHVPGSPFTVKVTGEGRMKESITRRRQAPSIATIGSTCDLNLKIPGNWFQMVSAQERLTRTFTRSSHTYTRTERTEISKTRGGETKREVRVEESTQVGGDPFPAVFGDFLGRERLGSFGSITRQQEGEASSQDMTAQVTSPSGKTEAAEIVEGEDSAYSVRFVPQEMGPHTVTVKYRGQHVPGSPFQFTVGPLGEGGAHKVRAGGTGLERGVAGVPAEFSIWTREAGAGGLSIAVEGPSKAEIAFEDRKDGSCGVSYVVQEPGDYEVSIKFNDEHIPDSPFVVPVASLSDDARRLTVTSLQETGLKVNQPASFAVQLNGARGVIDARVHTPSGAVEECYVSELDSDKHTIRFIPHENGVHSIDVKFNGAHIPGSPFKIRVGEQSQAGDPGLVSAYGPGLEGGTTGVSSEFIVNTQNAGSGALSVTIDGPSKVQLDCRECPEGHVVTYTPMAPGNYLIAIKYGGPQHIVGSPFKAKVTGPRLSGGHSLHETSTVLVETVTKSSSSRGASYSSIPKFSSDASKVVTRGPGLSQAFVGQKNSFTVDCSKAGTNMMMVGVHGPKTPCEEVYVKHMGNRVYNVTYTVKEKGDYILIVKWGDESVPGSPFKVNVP
UniProt Q921T2: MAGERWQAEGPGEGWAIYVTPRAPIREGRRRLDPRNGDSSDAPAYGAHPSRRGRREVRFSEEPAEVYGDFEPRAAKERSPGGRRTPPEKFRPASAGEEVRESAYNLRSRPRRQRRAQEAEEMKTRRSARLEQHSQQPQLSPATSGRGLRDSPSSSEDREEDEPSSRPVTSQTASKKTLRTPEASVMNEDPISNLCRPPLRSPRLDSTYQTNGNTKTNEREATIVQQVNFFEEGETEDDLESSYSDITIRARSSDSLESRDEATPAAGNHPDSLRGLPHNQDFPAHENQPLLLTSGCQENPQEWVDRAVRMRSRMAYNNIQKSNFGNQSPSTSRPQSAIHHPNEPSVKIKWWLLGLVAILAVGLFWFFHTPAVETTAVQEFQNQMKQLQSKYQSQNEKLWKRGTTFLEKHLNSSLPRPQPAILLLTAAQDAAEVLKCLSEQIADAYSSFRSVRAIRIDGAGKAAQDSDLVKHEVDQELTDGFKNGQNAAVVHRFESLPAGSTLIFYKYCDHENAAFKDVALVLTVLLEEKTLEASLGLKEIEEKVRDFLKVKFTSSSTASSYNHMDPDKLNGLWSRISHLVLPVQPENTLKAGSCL
UniProt P35385: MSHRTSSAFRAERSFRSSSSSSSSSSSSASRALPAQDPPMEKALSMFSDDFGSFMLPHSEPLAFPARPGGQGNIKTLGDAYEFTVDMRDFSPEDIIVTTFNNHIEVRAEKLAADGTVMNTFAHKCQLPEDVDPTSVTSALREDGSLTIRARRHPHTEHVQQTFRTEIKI
UniProt Q6P5H2: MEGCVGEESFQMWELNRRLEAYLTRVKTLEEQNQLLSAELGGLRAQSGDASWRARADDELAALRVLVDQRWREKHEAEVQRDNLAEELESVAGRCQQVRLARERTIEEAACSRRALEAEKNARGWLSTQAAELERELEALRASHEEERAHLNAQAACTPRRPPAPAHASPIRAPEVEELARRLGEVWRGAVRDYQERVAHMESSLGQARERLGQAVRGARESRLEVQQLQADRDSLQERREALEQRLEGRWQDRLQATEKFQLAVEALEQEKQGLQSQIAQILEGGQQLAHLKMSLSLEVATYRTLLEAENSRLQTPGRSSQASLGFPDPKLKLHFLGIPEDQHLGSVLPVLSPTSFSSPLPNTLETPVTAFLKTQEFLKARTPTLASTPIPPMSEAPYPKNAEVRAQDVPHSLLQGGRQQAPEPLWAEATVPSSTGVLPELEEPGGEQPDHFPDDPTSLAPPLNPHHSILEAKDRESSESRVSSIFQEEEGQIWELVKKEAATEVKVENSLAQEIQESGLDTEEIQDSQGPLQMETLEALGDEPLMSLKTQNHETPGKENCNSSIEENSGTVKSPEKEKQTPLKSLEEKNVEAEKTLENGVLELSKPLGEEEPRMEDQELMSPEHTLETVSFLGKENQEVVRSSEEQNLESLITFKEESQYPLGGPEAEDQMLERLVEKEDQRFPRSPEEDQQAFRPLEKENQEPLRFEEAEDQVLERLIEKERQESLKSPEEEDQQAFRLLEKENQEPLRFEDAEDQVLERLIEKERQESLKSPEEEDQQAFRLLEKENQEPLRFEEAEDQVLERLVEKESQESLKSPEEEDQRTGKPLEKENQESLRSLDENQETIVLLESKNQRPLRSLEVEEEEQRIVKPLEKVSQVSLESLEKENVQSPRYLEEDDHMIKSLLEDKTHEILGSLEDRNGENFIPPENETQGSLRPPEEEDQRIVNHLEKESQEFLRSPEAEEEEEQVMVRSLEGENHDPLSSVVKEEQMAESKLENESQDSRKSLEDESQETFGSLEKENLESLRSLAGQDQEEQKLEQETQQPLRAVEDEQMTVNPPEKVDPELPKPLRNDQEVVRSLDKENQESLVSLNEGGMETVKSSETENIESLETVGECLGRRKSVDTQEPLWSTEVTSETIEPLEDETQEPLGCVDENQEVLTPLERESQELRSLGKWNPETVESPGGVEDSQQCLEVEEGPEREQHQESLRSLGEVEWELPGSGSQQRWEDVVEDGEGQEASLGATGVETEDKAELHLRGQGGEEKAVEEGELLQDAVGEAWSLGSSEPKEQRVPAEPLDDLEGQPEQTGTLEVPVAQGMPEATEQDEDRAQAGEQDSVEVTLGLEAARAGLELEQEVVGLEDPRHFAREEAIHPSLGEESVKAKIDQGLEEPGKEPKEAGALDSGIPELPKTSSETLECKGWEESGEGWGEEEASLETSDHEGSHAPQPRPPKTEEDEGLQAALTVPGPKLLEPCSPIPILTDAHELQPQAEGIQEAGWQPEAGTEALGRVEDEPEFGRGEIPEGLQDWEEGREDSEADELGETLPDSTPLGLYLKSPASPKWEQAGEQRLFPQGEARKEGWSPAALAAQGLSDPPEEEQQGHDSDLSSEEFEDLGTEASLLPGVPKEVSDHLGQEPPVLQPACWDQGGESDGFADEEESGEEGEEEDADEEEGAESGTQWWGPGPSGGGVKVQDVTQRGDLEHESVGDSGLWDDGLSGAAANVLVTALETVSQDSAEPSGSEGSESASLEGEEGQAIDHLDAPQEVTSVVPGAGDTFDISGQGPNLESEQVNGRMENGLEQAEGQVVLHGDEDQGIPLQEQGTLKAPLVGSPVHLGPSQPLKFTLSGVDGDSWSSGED

Molecular target: YAP (mouse (endogenous in adult mouse heart)) (UniProt P46938)
Experiment: affinity purification with mass spectrometry

binding	Molecule
binds	Flnc (from UniProt Q8VHX6 1-2726)
binds	Xirp2 (from UniProt Q4U4S6 1-3784)
binds	Tor1aip1 (from UniProt Q921T2 1-595)
binds	Hspb7 (from UniProt P35385 1-169)
binds	Nestin (from UniProt Q6P5H2 1-1864)
binds	B1
binds	B2

Reference: publication doi:10.1101/2020.01.07.897199
